Laboratory results: PubChem BioAssay AID1259264 (Sanger Institute, 2017)

- Assay: 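Kinases whose loss cuts CL40 colorectal cancer cell survival, alone or with drugs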 (primary screen)
- System: CL40 human colorectal cancer cells
- Reagents: siRNA pool against human genes
- Conditions: DMSO, or an anchor drug: BYL719 at 1 µM, cetuximab at 5 µg/ml, or trametinib at 10 nM
- Measurement: 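Replicate-mean viability versus a non-targeting pool, robust z-score from control wells, and mean synergy with BYL719 1 µM, cetuximab 5 µg/ml or trametinib 10 nM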
- Direction: robust z-score, siRNA alone and viability, siRNA alone: higher = more viable cells
- Hit rule: 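Essential call: siRNA with no drug reaches a robust z under -3 (low cell count); drug synergy scores do not affect it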
- Meaning of the calls: active = essential (lowers viability alone); inactive = not essential
The deposit covers 794 reagents; this is a part drawn at random. 15 of them (1.9%) were called active. 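Calls rest on knock-down alone at z-score below -3; synergy scores with the three drugs do not decide them.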 No viability above 1 is reported: the scale is capped. Not all columns of the deposit are shown. Not stated in the record: the amount of reagent, the time to read-out.

target,"robust z-score, siRNA alone","viability, siRNA alone (fraction of control)",Outcome
CSNK1D,0.539,1,inactive
STK11,-2,0.818,inactive
TCF12,0.539,1,inactive
GRK2,0.539,1,inactive
MAST4,0.539,1,inactive
DGKQ,0.384,0.989,inactive
AMER1,0.539,1,inactive
GOLGA5,0.539,1,inactive
TTK,-1.32,0.867,inactive
MAP3K14,-0.452,0.929,inactive

Continued; the last 2 above are carried over.
target,"robust z-score, siRNA alone","viability, siRNA alone (fraction of control)",Outcome
TTK,-1.32,0.867,inactive
MAP3K14,-0.452,0.929,inactive
TBX3,0.539,1,inactive
STK4,0.539,1,inactive
WIPF1,-0.128,0.952,inactive
MAP3K4,-0.712,0.91,inactive
CDK14,0.539,1,inactive
TPK1,-3.41,0.717,active
NUAK1,-0.874,0.899,inactive
PDPK1,-3.02,0.745,active
RSKR,0.539,1,inactive
EPHA8,0.4,0.99,inactive
